Assay results reported in patent publication US20050191290A1, “Means and methods for manipulating hypersensitivity-like responses” (priority 2002, published 2005).
Part of at least one peptide drawing is inferred or uncertain, most often the ends. Peptide text beside a SMILES is read from it.

Columns and labels:
[1] = test system: Der p 2-specific light chain-sensitized mice; experiment: Der p 2-induced passive cutaneous anaphylaxis; format: in vivo
Ig-LC-sensitized animals = experiment: Stability of F991 in ointment (activity in ear swelling test after storage); format: in vivo, mice; conditions: in Cremor Cetomacrogolis FNA; stored two to three months at room temperature and at 4° C.
[2] = test system: Ig light chain-sensitized mice; experiment: Ig-LC-induced ear swelling after hapten challenge of passively sensitized mice (inhibition by F991); format: in vivo
DNFB-sensitized mice = experiment: DNFB contact sensitivity after active sensitization; format: in vivo

For `CC(C)C[C@H](NC(=O)[C@H](CS)NC(=O)[C@H](CS)NC(=O)[C@H](Cc1c[nH]cn1)NC(=O)CNC(=O)[C@H](CO)NC(=O)[C@H](Cc1c[nH]c2ccccc12)NC(=O)[C@H](Cc1c[nH]cn1)NC(=O)[C@H](C)N)C(=O)O` [F991] (H-AHWSGHCCL-OH), the “ear swelling in Der p 2-induced passive anaphylaxis” value ([1]; F991 50 microgram i.p. four hours before challenge with recombinant Der p 2) was “prevents development of ear swelling”, the “ear swelling 60 minutes after allergen challenge” value ([1]; F991 on the ears four hours before systemic challenge with house dust mite extract or recombinant Der p 2) was “completely inhibited” and the “activity after storage in ointment” value (Ig-LC-sensitized animals) was “retains its activity”. For the same molecule, the “induction of an ear swelling response” value ([2]; 50 μg F991 intraperitoneally at four or 24 hours before hapten challenge) was “completely prevented”, the “inhibition of the ear swelling response” value ([2]; F991 i.v. 30 minutes before hapten challenge, TNP-specific Ig-LC-sensitized mice, ear thickness two hours after challenge) was “clear dose-dependent inhibition” and the “Ig-LC-induced ear swelling after hapten challenge” value ([2]; F991 injected subcutaneously (50 μg/animal) at four or 24 hours before challenge) was “completely inhibited”. The “systemic inhibition of the Ig-LC effects (ear swelling)” value ([2]; F991 ointment applied on the back of the mice instead of the ear) was “does not result in systemic inhibition”, the “inhibition of ear swelling after hapten challenge” value ([2]; F991 ointment topically on the ear four hours before hapten challenge) was “dose-dependent inhibition” and the “Ig light chain-mediated hypersensitivity responses” value ([2]; mouse, in vivo) was “effectively blocked”. For the same molecule, the “ear swelling (contact sensitivity response)” value (DNFB-sensitized mice; topical F991 cream from two hours after hapten challenge, then daily, 24-96 hours after challenge) was “diminished the ear swelling” and the “ear swelling (contact sensitivity response)” value (DNFB-sensitized mice; topical F991 on the ears four hours before hapten challenge, two and 24 hours after challenge) was “completely inhibited”.
